# Paper PMC7819943, “Rice protein-binding microarrays: a tool to detect cis-acting elements near promoter regions in rice”
# Some of the results follow.
# Target: T1, OsSMF1 (Oryza sativa, UniProt Q6ZLB0 1-436)
# T1 sequence: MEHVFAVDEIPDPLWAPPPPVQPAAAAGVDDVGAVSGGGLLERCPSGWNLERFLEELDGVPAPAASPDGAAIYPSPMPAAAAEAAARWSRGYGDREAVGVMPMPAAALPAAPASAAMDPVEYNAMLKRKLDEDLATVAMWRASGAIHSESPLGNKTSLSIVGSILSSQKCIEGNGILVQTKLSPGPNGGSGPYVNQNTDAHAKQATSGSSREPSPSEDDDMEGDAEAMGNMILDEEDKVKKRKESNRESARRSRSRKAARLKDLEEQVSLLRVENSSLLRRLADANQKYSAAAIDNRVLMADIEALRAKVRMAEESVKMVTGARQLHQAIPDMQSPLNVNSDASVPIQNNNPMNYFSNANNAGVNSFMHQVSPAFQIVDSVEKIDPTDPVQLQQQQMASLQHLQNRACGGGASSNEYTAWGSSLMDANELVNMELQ
# Experiment: protein-binding microarray (RPBM); PBS, 2% BSA, 51.3 ng/ul salmon testes DNA, 50 uM zinc acetate, 200 nM TF, 25 C, 1 h; high values mean tight binding
# Settings: protein: recombinant; tags: N-terminal polyhistidine and DsRed monomer fusion (pET32a); chain copies: 2; label: CyDye5-dUTP incorporated in the synthesized complementary strand; 3' TTTTT single-stranded linker to array surface; dsDNA, one strand shown
# Procedure, shortened: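 Using Ni–NTA, transcription factors fused N-terminally to polyhistidine and DsRed were purified after expression in E. coli BL21-CodonPlus. These were incubated at 200 nM with a blocked, double-stranded custom Agilent array for 1 h at 25 °C in a buffer containing 50 µM zinc acetate, and the array was washed. The binding signal is per-feature fluorescence intensity (arbitrary units) on an Axon 4000B scanner.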
row,Sequence,binding signal
1,AGAGAGAGAGAGAGAGGATCTAATAGTCCGTCCGCGTTGGCGGAGTCACCTAGTGCAG,3610 fluorescence intensity (a.u.)
2,CCTACTCCCAAACAATCACGCTGACTCATGCAACCTCCATCGGAGTCACCTAGTGCAG,14400 fluorescence intensity (a.u.)
3,CAGCAACGCTTATTCAGTAGTATCGTGCTGTACTGCTGTCCGGAGTCACCTAGTGCAG,3630 fluorescence intensity (a.u.)
4,CCCCACCAGTATAGAAGTGTTTAGTCACACTGAAGTTTGGCGGAGTCACCTAGTGCAG,3170 fluorescence intensity (a.u.)
5,CTCCTCCTCCCGCCGCCGCGTCCTCTACGTCGCGGCCGCCCGGAGTCACCTAGTGCAG,3860 fluorescence intensity (a.u.)
6,TCTAGAGGAAGGAAGAGTGACGCTGCAGCGGTGTGCCTTACGGAGTCACCTAGTGCAG,5730 fluorescence intensity (a.u.)
7,ACACGTAAAAGCTTTACACGTCGCTATGTTAGAACAGAGTCGGAGTCACCTAGTGCAG,4590 fluorescence intensity (a.u.)
8,AGCCTTACCCAGCAAATTTCCCGCCTTCGTCACCGGGAGACGGAGTCACCTAGTGCAG,3250 fluorescence intensity (a.u.)
9,TCACATCCACATCATCATGGTCTAACAGAATCCATCCAGACGGAGTCACCTAGTGCAG,7590 fluorescence intensity (a.u.)
10,AGGAGCGGGGAGAGTGTCGCGGTGTTGTCAGGGTGAGGGGCGGAGTCACCTAGTGCAG,3580 fluorescence intensity (a.u.)
11,AGAACACCGCCGAGGCCACGTACGCGTTGGATTCGTCGTCCGGAGTCACCTAGTGCAG,10100 fluorescence intensity (a.u.)
12,GCCAATTACAAATTCAACACCTAAATTTAAGCAAACACATCGGAGTCACCTAGTGCAG,3680 fluorescence intensity (a.u.)
13,TCTCTTCTCTTCTTCCGCGACACGTCTTCGCCGCCGCCGCCGGAGTCACCTAGTGCAG,6770 fluorescence intensity (a.u.)
14,GACGTGCGACGCGCCACGTCCGTCTTGACGTCGCAAGACCCGGAGTCACCTAGTGCAG,7660 fluorescence intensity (a.u.)
15,AGGATTAGGAAAGACCCACAGGATCTCATCATCTACACCACGGAGTCACCTAGTGCAG,12000 fluorescence intensity (a.u.)
16,CGCAAACCATGGTGGCTTGCTCCCCGCATTGGACACCGCCCGGAGTCACCTAGTGCAG,25800 fluorescence intensity (a.u.)
17,CTCGCGTCGCCACGCAACTTAATTAATTTAGCCCCTAATTCGGAGTCACCTAGTGCAG,3640 fluorescence intensity (a.u.)
18,TGTGTTCCTTGGTTACTTGGAAAATGGTAACCCAGTTGCTCGGAGTCACCTAGTGCAG,4720 fluorescence intensity (a.u.)
19,GCTCTCGCTGACGCTGCCGCTCCGCCTGCCTCCGCCCGCGCGGAGTCACCTAGTGCAG,3900 fluorescence intensity (a.u.)
20,CGGCGACTTCACACGCGGCAGGCAATCTTCAGGCGGTCAGCGGAGTCACCTAGTGCAG,3730 fluorescence intensity (a.u.)
21,CTGACATATGTCAGCATATATACTCACTAACCTATCATAGCGGAGTCACCTAGTGCAG,3350 fluorescence intensity (a.u.)

# Not a retest: an excerpt of the list.
row,Sequence,binding signal
16,CGCAAACCATGGTGGCTTGCTCCCCGCATTGGACACCGCCCGGAGTCACCTAGTGCAG,25800 fluorescence intensity (a.u.)
17,CTCGCGTCGCCACGCAACTTAATTAATTTAGCCCCTAATTCGGAGTCACCTAGTGCAG,3640 fluorescence intensity (a.u.)

# Next part:

row,Sequence,binding signal
1,AGCAAATGATGGGCTTTCATGGCTGCTTCCATGGACGTGGCGGAGTCACCTAGTGCAG,3990 fluorescence intensity (a.u.)
2,TTGCTCGTGTCTCTGTCCGGATATGGGCCTCACGTGGCGGCGGAGTCACCTAGTGCAG,5260 fluorescence intensity (a.u.)
3,TATACAAGTCAGCTGCTGCTCGATCTTGTCATGAGAGCCCCGGAGTCACCTAGTGCAG,5140 fluorescence intensity (a.u.)
4,ATTCTAAGTCCCTGTCACATCGGATGTTTGGCACTAATTTCGGAGTCACCTAGTGCAG,4220 fluorescence intensity (a.u.)
5,TGTGATTGTATTGGTTACTAGAGTAGTATTTAGTAGAGATCGGAGTCACCTAGTGCAG,42200 fluorescence intensity (a.u.)
6,GGATGGCCATCGGGGTAGAAGAGATGTGATGGGTTGACTCCGGAGTCACCTAGTGCAG,3240 fluorescence intensity (a.u.)
7,GTAATGCCACGTAGGCGCCACATCGGATAAAGATCCGGTCCGGAGTCACCTAGTGCAG,24700 fluorescence intensity (a.u.)
8,CTTGTGGCCGGCGCAGCCGCCGCACCCCTCCGACGTGTTCCGGAGTCACCTAGTGCAG,5380 fluorescence intensity (a.u.)
9,CGCGCGGCTGACGGAGATCGAGAGCCGCGTCGTCGCCATGCGGAGTCACCTAGTGCAG,3760 fluorescence intensity (a.u.)
10,ACGTGTAAGGTATCAACTGATGTGTCGGACACTCGGACTCCGGAGTCACCTAGTGCAG,4140 fluorescence intensity (a.u.)
11,AAAGAAATACTAGTATGCTGATGCAAGCTAGTGTGATCCACGGAGTCACCTAGTGCAG,3470 fluorescence intensity (a.u.)
12,TGAAAAGACGATCTTTATGACGCATGGTTGTTGACACATGCGGAGTCACCTAGTGCAG,24200 fluorescence intensity (a.u.)
13,TCAACTGATGACTTGGATTGGGTCTCCAGCATGTATGGTCCGGAGTCACCTAGTGCAG,8500 fluorescence intensity (a.u.)
14,GCAAATTGTCCATCTCTGACGCCTCATCTGAATTGACTGACGGAGTCACCTAGTGCAG,29100 fluorescence intensity (a.u.)
15,TTGAAATTAGAACGATGTGACAGAAAAGTTGGAAGTTTATCGGAGTCACCTAGTGCAG,20300 fluorescence intensity (a.u.)
16,ATTTATGGGCTGGGGCTGTGGACCGCCAGACTTCATCGTCCGGAGTCACCTAGTGCAG,3190 fluorescence intensity (a.u.)
17,TATACACCACGTTTGCTGGCTTGGCTTCCTTCCACACTCCCGGAGTCACCTAGTGCAG,4000 fluorescence intensity (a.u.)
18,ATATATTTCACTGGGGTTTCTATGGCTGTGGAAGGATATCCGGAGTCACCTAGTGCAG,25700 fluorescence intensity (a.u.)
19,TCTTCTCCCGTACTCCGCCACGCCGCACGTCTTCCCTTCGCGGAGTCACCTAGTGCAG,3950 fluorescence intensity (a.u.)
20,AGTTTGCAATTCATCGACGTGTAATTCTGTACAATGAAATCGGAGTCACCTAGTGCAG,5080 fluorescence intensity (a.u.)
21,GCAGGCTCACTCACCTCGCTTCCTGTCCGACATCGCGCCGCGGAGTCACCTAGTGCAG,3240 fluorescence intensity (a.u.)
